For this experiment, the system named is BDF1 mice, L1210/MTX-resistant leukemia ip, survival T/C. Kind of experiment: NCI In Vivo Anticancer Drug Screen. Data for tumor model L1210 Leukemia resistant to Methotrexate; NSC 740 (intraperitoneal) in B6D2F1 (BDF1) mice. The following applies: T/C endpoint: mean survival time, higher T/C = longer survival. On the procedure: The antitumor activity of compounds was measured in mice bearing transplantable tumors. Survival or tumor size were measured and the results are expressed as the measurement made in the treated group (T) divided by the measurement made in the vehicle treated control group (C). The tumor model used in this assay is L1210 Leukemia resistant to Methotrexate; NSC 740 (intraperitoneal) in B6D2F1 (BDF1) mice

Where [1] appears, read: dose: 1.0 mg/kg/injection, schedule: Q01DX Z (ip), vehicle: other.
The mark [2] stands for this setting: dose: 2.0 mg/kg/injection, schedule: Q01DX Z (ip), vehicle: other.
Where [3] appears, read: dose: 200.0 mg/kg/injection, schedule: Q01DX Z (ip), vehicle: carboxymethylcellulose (CMC).
Setting [4] is: dose: 250.0 mg/kg/injection, schedule: Q01DX Z (ip), vehicle: carboxymethylcellulose (CMC).
[5] abbreviates: dose: 40.0 mg/kg/injection, schedule: Q01DX Z (ip), vehicle: other.
[6] abbreviates: dose: 80.0 mg/kg/injection, schedule: Q01DX Z (ip), vehicle: other.
Where [7] appears, read: dose: 25.0 mg/kg/injection, schedule: Q01DX Z (ip), vehicle: saline.
Where [8] appears, read: dose: 50.0 mg/kg/injection, schedule: Q01DX Z (ip), vehicle: saline.
[9] abbreviates: dose: 100.0 mg/kg/injection, schedule: Q01DX Z (ip), vehicle: saline.
[10] abbreviates: dose: 4.0 mg/kg/injection, schedule: Q01DX Z (ip), vehicle: carboxymethylcellulose (CMC).
[11] abbreviates: dose: 100.0 mg/kg/injection, schedule: Q01DX Z (ip), vehicle: carboxymethylcellulose (CMC).
Where [12] appears, read: dose: 125.0 mg/kg/injection, schedule: Q01DX Z (ip), vehicle: carboxymethylcellulose (CMC).
[13] abbreviates: dose: 500.0 mg/kg/injection, schedule: Q01DX Z (ip), vehicle: carboxymethylcellulose (CMC).
The mark [14] stands for this setting: dose: 75.0 mg/kg/injection, schedule: Q01DX Z (ip), vehicle: carboxymethylcellulose (CMC).

The list does not hold the whole screen: it is rich in T/C values a quarter to a half above the control, in often repeated tests (any T/C) and in doses without a T/C. Other doses and runs of a compound stand elsewhere. T/C: endpoint of the treated group in % of that of the vehicle group. Some doses have a count of surviving animals in place of a T/C: the source files T/C as zero there, which appears to mark a toxic dose or a test without result, not a measured value. Some survivor counts are full or nearly so, which does not show that the dose was tolerated: the source hardly ever lists a survival T/C far under the control, and the zero likely stands for such cases as well. Counts of survivors are from the toxicity check (mostly the fifth day) where no day follows; animals may have died later. Schedule codes are those of the source, taken here to give the interval after Q, in days (D) or hours (H), and the number of doses after X. Some schedules carry Z or #; the key to these is not given. Some entries hold several experiments; the results are listed from low to high. Where survival is the endpoint, this PubChem deposit counts one and a half times the control or more as active, and values a quarter to a half above the control carry no call in these data; other NCI protocols may use other cut-offs. Some T/C values carry the count of animals alive at the toxicity check (mostly the fifth day); without a count, all were alive then. Signs of the kind (2×) say how often a value occurs here.

Take `CN(Cc1cnc2nc(N)nc(N)c2n1)c1ccc(C(=O)N[C@@H](CCC(=O)O)C(=O)O)cc1`: the T/C (dose: 0.5 mg/kg/injection, schedule: Q01DX Z (ip), vehicle: other) was 93, 99, 102, 106, 109, 120 % of control; the T/C under setting [1] is 91, 98, 104, 108 [5 of 6 alive], 109, 111, 113, 121 % of control [5 of 6 alive]; the T/C under setting [2] is 94 and 100 % of control. The survivor count runs as follows: under setting [1], 6 of 6; under setting [2], 6 of 6; (dose: 3.0 mg/kg/injection, schedule: Q01DX010 (ip), vehicle: other) 6 of 6; (dose: 3.0 mg/kg/injection, schedule: Q01DX Z (ip), vehicle: alkali diluted with saline) 7 of 7.
With `Nc1nc(=S)c2[nH]cnc2[nH]1`, the survivor count by setting is: (dose: 2.5 mg/kg/injection, schedule: Q01DX010 (ip), vehicle: saline) 6 of 6; (dose: 5.0 mg/kg/injection, schedule: Q01DX010 (ip), vehicle: saline) 6 of 6; (dose: 10.0 mg/kg/injection, schedule: Q01DX010 (ip), vehicle: saline) 6 of 6; (dose: 20.0 mg/kg/injection, schedule: Q01DX Z (ip), vehicle: carboxymethylcellulose (CMC)) 6 of 6.
Turning to `CCn1cnc2c(=S)nc[nH]c21`, the survivor count is given as 6 of 6 (dose: 50.0 mg/kg/injection, schedule: Q01DX Z (ip), vehicle: carboxymethylcellulose (CMC)); 6 of 6 (dose: 62.5 mg/kg/injection, schedule: Q01DX010 (ip), vehicle: saline); 6 of 6 under setting [3]; 3 of 6 under setting [4].
As to `O=NN(CCCl)C(=O)NCCCl`, where the note is “dose: 12.5 mg/kg/injection, schedule: Q01DX010 (ip), vehicle: saline”, the T/C is 125 % of control. In addition, the survivor count (dose: 50.0 mg/kg/injection, schedule: Q01DX010 (ip), vehicle: saline) was 3 of 6 and 5 of 6.
Regarding `O=C(CCBr)N1CCN(C(=O)CCBr)CC1`, the survivor count (dose: 6.3 mg/kg/injection, schedule: Q01DX Z (ip), vehicle: methylcellulose (MC)) is recorded as 5 of 6; the survivor count (dose: 12.5 mg/kg/injection, schedule: Q01DX Z (ip), vehicle: methylcellulose (MC)) is 5 of 6; the survivor count (dose: 25.0 mg/kg/injection, schedule: Q01DX Z (ip), vehicle: methylcellulose (MC)) is given as 5 of 6.
For the compound `Nc1nc2n[nH]nc2c(=O)[nH]1`, the survivor count runs as follows: (dose: 25.0 mg/kg/injection, schedule: Q01DX010 (ip), vehicle: alkali diluted with saline) 6 of 6; under setting [5], 1 of 6 and 5 of 6; under setting [6], 1 of 6; (dose: 400.0 mg/kg/injection, schedule: Q01DX Z (ip), vehicle: water) 6 of 6; (dose: 500.0 mg/kg/injection, schedule: Q01DX Z (ip), vehicle: water) 3 of 6. Besides, the T/C under setting [5] is listed as 90, 100, 104, 123 % of control; the T/C (dose: 75.0 mg/kg/injection, schedule: Q01DX Z (ip), vehicle: water) is 135 % of control; the T/C under setting [6] is 91, 92, 108, 112, 125 % of control [5 of 6 alive]; the T/C (dose: 100.0 mg/kg/injection, schedule: Q01DX Z (ip), vehicle: water) is 127 % of control.
For the compound `O=P1(N(CCCl)CCCl)NCCCO1` (stereo not drawn), the T/C runs as follows: (dose: 22.5 mg/kg/injection, schedule: Q01DX010 (ip), vehicle: saline) 133 % of control; (dose: 22.5 mg/kg/injection, schedule: Q01DX Z (ip), vehicle: saline) 125 % of control; under setting [7], 112, 117, 130 (2×), 144, 151, 186 % of control; (dose: 45.0 mg/kg/injection, schedule: Q01DX Z (ip), vehicle: saline) 129 and 131 % of control; under setting [8], 86, 113, 117 (2×), 130 (2×), 142, 171 % of control. Moreover, the survivor count is, setting by setting: under setting [8], 6 of 6; (dose: 90.0 mg/kg/injection, schedule: Q01DX Z (ip), vehicle: saline) 6 of 6; under setting [9], 6 of 6; (dose: 180.0 mg/kg/injection, schedule: Q01DX010 (ip), vehicle: saline) 6 of 6; (dose: 400.0 mg/kg/injection, schedule: Q01DX Z (ip), vehicle: saline) 6 of 6.
As for `CC1(C)N=C(N)N=C(N)N1c1cccc(Br)c1`, the survivor count runs as follows: (dose: 0.5 mg/kg/injection, schedule: Q01DX Z (ip), vehicle: carboxymethylcellulose (CMC)) 6 of 6; (dose: 1.0 mg/kg/injection, schedule: Q01DX Z (ip), vehicle: carboxymethylcellulose (CMC)) 6 of 6; under setting [10], 6 of 6; under setting [11], 2 of 7.
As for `Nc1nc(SCc2ccccc2)c2[nH]cnc2n1`, the survivor count is listed as 6 of 6 (dose: 32.0 mg/kg/injection, schedule: Q01DX010 (ip), vehicle: saline); 6 of 6 under setting [12]; 0 of 6 under setting [4]; 0 of 6 under setting [13].
For `CS(=O)(=O)OCCCl`, the survivor count by setting is: under setting [7], 1 of 6; under setting [9], 4 of 6; (dose: 200.0 mg/kg/injection, schedule: Q01DX Z (ip), vehicle: saline) 0 of 6.
On to `C[N+](C)(C)c1ncnc2nc[nH]c12`, for which the survivor count is, setting by setting: (dose: 30.0 mg/kg/injection, schedule: Q01DX010 (ip), vehicle: saline) 6 of 6; (dose: 60.0 mg/kg/injection, schedule: Q01DX010 (ip), vehicle: saline) 6 of 6; (dose: 120.0 mg/kg/injection, schedule: Q01DX010 (ip), vehicle: saline) 6 of 6.
As for `Nc1ccc(C(=O)NO)cc1`, the survivor count (dose: 900.0 mg/kg/injection, schedule: Q01DX015 (ip), vehicle: carboxymethylcellulose (CMC)) is reported as 2 of 10.
For the compound `Oc1cc(CN(CCCl)CCCl)c(O)cc1CN(CCCl)CCCl`, the survivor count by setting is: under setting [10], 5 of 6; (dose: 8.0 mg/kg/injection, schedule: Q01DX Z (ip), vehicle: carboxymethylcellulose (CMC)) 5 of 6; (dose: 9.37 mg/kg/injection, schedule: Q01DX Z (ip), vehicle: carboxymethylcellulose (CMC)) 5 of 6; (dose: 18.75 mg/kg/injection, schedule: Q01DX Z (ip), vehicle: carboxymethylcellulose (CMC)) 3 of 6; (dose: 37.5 mg/kg/injection, schedule: Q01DX Z (ip), vehicle: carboxymethylcellulose (CMC)) 4 of 6; under setting [14], 3 of 6.
In the case of `Cn1c(N)nc2nc[nH]c2c1=S`, the survivor count under setting [14] is given as 6 of 6; the survivor count under setting [11] is 6 of 6; the survivor count (dose: 150.0 mg/kg/injection, schedule: Q01DX Z (ip), vehicle: carboxymethylcellulose (CMC)) is reported as 3 of 6; the survivor count under setting [3] is 1 of 6.
`O=c1[nH]c(=O)n(C2CC(O)C(CO)O2)cc1Br` (stereo not drawn): the survivor count is, setting by setting: (dose: 62.5 mg/kg/injection, schedule: Q01DX Z (ip), vehicle: carboxymethylcellulose (CMC)) 5 of 6; under setting [12], 6 of 6; under setting [4], 6 of 6; under setting [13], 5 of 6.

Values taken from PubChem BioAssay AID284 (DTP/NCI, 2004).
